Test results reported in patent US8293755B2, “Treatment of statin side effects using uridine derivatives” (Magral Pty Ltd., priority 2001, dated 2012).

Test: Pilot clinical study: monitoring of blood serum components
Assay type: in vivo, human
Conditions: during the course of the trial
Excerpt: The design of the clinical trial involves a blood sample being taken from the patients prior to commencing medication administration and then on four further occasions during the 13 week trial, at around days 13-16, days 26-30, days 35-60 and finally at days 80-90. Patients were also required to submit answers to a questionnaire on approximately a weekly basis to enable patients to be scored for pain using the McGill Pain Questionnaire (Melzack, R., 1975 “The McGill Pain Questionnaire: Major Properties and Scoring Methods”. Pain 1:277-299, the disclosure of which is included herein in its entirety by way of reference) scales for Pain Rating Index (PRI) and Present Pain Intensity (PPI). In the PRI index, which comprises two scores, higher scores indicate increasing levels of pain. In the PPI index present pain is given a score of 0 to 5, where 0 represents no pain and 5 represents excruciating pain. Patients were also scored prior to commencement of the trial medication for fatigue using the Fatigue Impact Scale (Fisk, J. D. et al, 1994, “Measuring the functional impact of fatigue: Initial Validation of the Fatigue Impact Scale”, Clinical Infectious Disease, 18 (Suppl 1):S79-83, the disclosure of which is included herein in its entirety by way of reference). On the first week at the clinic, prior to commencement of the trial medication, details of the patients' statin medication were recorded and daily doses noted.
After the pre-trial medication blood samples and questionnaires were taken (T0d) patients commenced taking daily doses of 1600 mg of magnesium orotate, administered as 2×400 mg tablets, morning and evening.
Blood samples were taken prior to commencement of trial medication (T0d) and after approximately 14 (T14d), 28 (T28d), 42 (T42d) and 56 (T56d) days to determine individual to baseline levels of uridine (μg/ml) arising from magnesium orotate (MgOr) administration, to thereby monitor patient compliance. Blood samples taken were also used to determine creatine kinase concentration (CK) (units/L), gamma glutaryl transferase (GGT) concentration, aspartate amino transferase (AST) concentration and alanine aminotransferase concentration (ALT) (units/L), as well as serum lipid levels including total cholesterol concentration, high density lipoprotein (HDL-CHOL) concentration, low density lipoprotein (LDL-CHOL) concentration, tryglyceride (TRIG) concentration and levels of other serum components routinely tested for including magnesium ion concentration.

magnesium orotate
no significant alteration: high density lipoprotein (HDL-CHOL) concentration | low density lipoprotein (LDL-CHOL) concentration | magnesium ion concentration | total cholesterol concentration | tryglyceride (TRIG) concentration
